Assay results reported in patent US20070281326A1 (QUARK PHARMACEUTICALS, published 2007).
These are yes or no findings as the source states them, for the method shown. For some of these results: In cells and extracts the contact can be indirect. Some results given as binding are weak or reduced against the parent protein; the word gives no strength. For some of these results: Where a sequence is shown, tags or fusion partners need not be part of it. Values belong to the binder of their own block, whether it stands above or below them.

By UniProt entry, the sequences of proteins in these tests, tags left out. Where a name states a change or a piece, a line headed by the entry shows the natural chain unless it says otherwise.
UniProt P49815: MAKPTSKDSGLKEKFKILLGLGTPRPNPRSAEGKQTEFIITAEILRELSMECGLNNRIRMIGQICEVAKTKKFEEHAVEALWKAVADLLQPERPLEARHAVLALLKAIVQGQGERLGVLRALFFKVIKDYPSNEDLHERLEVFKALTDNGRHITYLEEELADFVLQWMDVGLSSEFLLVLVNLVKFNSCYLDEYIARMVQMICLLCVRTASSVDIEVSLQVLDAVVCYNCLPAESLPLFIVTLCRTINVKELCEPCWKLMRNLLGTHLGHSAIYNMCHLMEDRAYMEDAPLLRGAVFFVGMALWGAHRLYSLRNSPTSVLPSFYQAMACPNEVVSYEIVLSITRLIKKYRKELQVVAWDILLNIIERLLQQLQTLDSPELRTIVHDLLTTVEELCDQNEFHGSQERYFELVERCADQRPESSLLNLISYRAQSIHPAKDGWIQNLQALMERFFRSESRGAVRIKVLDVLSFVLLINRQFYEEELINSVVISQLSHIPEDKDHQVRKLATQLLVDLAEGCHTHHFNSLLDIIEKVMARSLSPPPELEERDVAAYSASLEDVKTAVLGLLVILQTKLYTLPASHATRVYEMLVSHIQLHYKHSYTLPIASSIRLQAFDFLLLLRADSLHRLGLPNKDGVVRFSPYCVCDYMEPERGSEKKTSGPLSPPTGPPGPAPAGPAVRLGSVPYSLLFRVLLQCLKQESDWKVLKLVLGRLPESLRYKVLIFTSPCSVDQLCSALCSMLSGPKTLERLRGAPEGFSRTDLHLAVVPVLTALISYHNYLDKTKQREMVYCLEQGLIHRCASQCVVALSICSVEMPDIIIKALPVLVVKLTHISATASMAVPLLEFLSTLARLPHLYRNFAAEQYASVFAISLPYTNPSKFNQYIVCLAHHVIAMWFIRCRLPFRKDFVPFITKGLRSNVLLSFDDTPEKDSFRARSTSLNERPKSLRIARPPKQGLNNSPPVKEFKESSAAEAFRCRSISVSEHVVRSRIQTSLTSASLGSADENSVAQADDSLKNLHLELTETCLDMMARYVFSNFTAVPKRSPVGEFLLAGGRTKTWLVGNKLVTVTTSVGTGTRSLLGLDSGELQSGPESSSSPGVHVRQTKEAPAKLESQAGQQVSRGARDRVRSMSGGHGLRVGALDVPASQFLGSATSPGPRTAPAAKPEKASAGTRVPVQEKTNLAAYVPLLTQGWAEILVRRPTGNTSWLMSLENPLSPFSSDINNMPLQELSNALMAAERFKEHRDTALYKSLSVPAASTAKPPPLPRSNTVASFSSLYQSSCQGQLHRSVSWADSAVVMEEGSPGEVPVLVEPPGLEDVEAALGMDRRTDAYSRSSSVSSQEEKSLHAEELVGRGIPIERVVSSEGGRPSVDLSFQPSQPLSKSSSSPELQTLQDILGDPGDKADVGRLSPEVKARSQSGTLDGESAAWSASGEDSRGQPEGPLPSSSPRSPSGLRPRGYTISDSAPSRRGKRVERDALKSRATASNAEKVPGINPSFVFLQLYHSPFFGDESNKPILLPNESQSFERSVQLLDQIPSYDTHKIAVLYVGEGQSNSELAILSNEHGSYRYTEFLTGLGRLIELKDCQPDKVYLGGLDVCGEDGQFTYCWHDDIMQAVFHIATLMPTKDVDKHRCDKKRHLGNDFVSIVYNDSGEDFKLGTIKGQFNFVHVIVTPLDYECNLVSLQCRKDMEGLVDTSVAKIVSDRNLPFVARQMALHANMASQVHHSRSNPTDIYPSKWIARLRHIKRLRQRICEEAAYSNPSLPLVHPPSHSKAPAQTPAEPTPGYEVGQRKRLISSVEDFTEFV

Assays:
TSC2 [1] = target: T1, TSC2 (human, UniProt P49815 1-1807, limits assumed); assay: pull-down from extract
T1 construct: TSC2 without a stated tag, endogenous or expressed from transfected cDNA in 293T cell extracts; also called tuberin; endogenous TSC2

TSC2 [2] = target: T1, TSC2; assay: pull-down from cell extract with 6XHis baits (FIG. 13)
[3] = target: T2, HA-SV5-full length hRTP801 (human), Q9NX09; assay: HTRF on 293T HEK cytosolic extract (FIG. 23); conditions: remark: other sources report otherwise
T2 chain: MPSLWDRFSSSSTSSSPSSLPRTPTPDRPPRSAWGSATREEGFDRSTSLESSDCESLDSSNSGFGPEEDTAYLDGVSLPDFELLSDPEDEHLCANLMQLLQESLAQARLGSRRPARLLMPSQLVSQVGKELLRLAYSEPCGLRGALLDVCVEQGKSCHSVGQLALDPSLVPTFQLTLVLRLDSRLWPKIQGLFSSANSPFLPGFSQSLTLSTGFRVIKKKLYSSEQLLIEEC

[4] = target: T2, HA-SV5-full length hRTP801 (human), …; assay: co-IP with anti-FLAG resin from 293T extract (FIG. 21); conditions: remark: other sources report otherwise
[5] = target: T2, HA-SV5-full length hRTP801 (human), …; assay: co-IP with M2 anti-FLAG resin from CoCl2-treated 293T HEK extract (FIG. 21); conditions: remark: other sources report otherwise
hRTP801 (human), Q9NX09 [6] = target: T3, hRTP801 (human), Q9NX09; assay: bacterial two-hybrid system; conditions: remark: other sources report otherwise
T3 chain: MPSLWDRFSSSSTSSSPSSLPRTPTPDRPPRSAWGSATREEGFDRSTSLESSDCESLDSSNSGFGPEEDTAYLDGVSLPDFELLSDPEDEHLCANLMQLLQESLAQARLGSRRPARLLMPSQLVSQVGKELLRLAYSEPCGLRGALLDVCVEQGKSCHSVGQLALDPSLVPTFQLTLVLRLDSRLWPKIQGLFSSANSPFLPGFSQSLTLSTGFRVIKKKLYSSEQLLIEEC

hRTP801 (human), Q9NX09 [7] = target: T3, hRTP801 (human), Q9NX09; assay: summary of Example 6; conditions: remark: other sources report otherwise
TSC2 [8] = target: T1, TSC2; assay: co-IP with anti-FLAG from 293T extract

B1: 6XHis-hRTP801 C-fragment (protein, not shown: small tags and cut ends)
chain: DEHLCANLMQLLQESLAQARLGSRRPARLLMPSQLVSQVGKELLRLAYSEPCGLRGALLDVCVEQGKSCHSVGQLALDPSLVPTFQLTLVLRLDSRLWPKIQGLFSSANSPFLPGFSQSLTLSTGFRVIKKKLYSSEQLLIEEC
binding (TSC2 [1]): binds
binding (TSC2 [2]): binds

B3: 6XHis-hRTP801 (protein, not shown: small tags and cut ends)
chain: MPSLWDRFSSSSTSSSPSSLPRTPTPDRPPRSAWGSATREEGFDRSTSLESSDCESLDSSNSGFGPEEDTAYLDGVSLPDFELLSDPEDEHLCANLMQLLQESLAQARLGSRRPARLLMPSQLVSQVGKELLRLAYSEPCGLRGALLDVCVEQGKSCHSVGQLALDPSLVPTFQLTLVLRLDSRLWPKIQGLFSSANSPFLPGFSQSLTLSTGFRVIKKKLYSSEQLLIEEC
binding (TSC2 [1]): binds
binding (TSC2 [2]): binds

More lines, now with the values ahead:

binding [3]: binds
binding [4]: binds
binding [5]: binds
B2: FLAG-hRTP801, Q9NX09 1-232 (protein, not shown: small tags and cut ends)
chain: MPSLWDRFSSSSTSSSPSSLPRTPTPDRPPRSAWGSATREEGFDRSTSLESSDCESLDSSNSGFGPEEDTAYLDGVSLPDFELLSDPEDEHLCANLMQLLQESLAQARLGSRRPARLLMPSQLVSQVGKELLRLAYSEPCGLRGALLDVCVEQGKSCHSVGQLALDPSLVPTFQLTLVLRLDSRLWPKIQGLFSSANSPFLPGFSQSLTLSTGFRVIKKKLYSSEQLLIEEC

binding (hRTP801 (human), Q9NX09 [6]): binds
binding (hRTP801 (human), Q9NX09 [7]): binds
B4: hRTP801, Q9NX09 1-232 (protein)
chain: MPSLWDRFSSSSTSSSPSSLPRTPTPDRPPRSAWGSATREEGFDRSTSLESSDCESLDSSNSGFGPEEDTAYLDGVSLPDFELLSDPEDEHLCANLMQLLQESLAQARLGSRRPARLLMPSQLVSQVGKELLRLAYSEPCGLRGALLDVCVEQGKSCHSVGQLALDPSLVPTFQLTLVLRLDSRLWPKIQGLFSSANSPFLPGFSQSLTLSTGFRVIKKKLYSSEQLLIEEC

binding (TSC2 [8]): binds
B5: FLAG-hRTP801-L (protein, human, UniProt Q96D03 1-193, looked up, not shown: small tags and cut ends)
chain: MVATGSLSSKNPASISELLDCGYHPESLLSDFDYWDYVVPEPNLNEVIFEESTCQNLVKMLENCLSKSKQTKLGCSKVLVPEKLTQRIAQDVLRLSSTEPCGLRGCVMHVNLEIENVCKKLDRIVCDSSVVPTFELTLVFKQENCSWTSFRDFFFSRGRFSSGFRRTLILSSGFRLVKKKLYSLIGTTVIEGS
